# This is one part of the list.
# Compound: CC1Cc2ccccc2N1C(=O)C1CCCN(C1)C(=O)CCl (mixture of isomers) [TRIM25 ligand 11 (diastereomer mixture)]
# Assay: probe-labelled cysteine peptide fold change vs DMSO (competition) (log2 fold change); higher = less target engagement (more negative = stronger competition)
# Settings: THP-1, incubation time: 4 h
# 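Further: competitive chemoproteomic profiling in live THP-1 cells with an iodoacetamide desthiobiotin (IA-DTB) probe, comparing probe-labelled peptide intensities in compound-treated cells against DMSO-treated controls.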
Target,probe-labelled cysteine peptide fold change (10 µM),probe-labelled cysteine peptide fold change (50 µM)
CUL3_Q13618_636_ALQSLACGKPTQR (UniProt Q13618),-0.067,-0.239
CTSC_P53634_448_GTDECAIESIAVAATPIPK (UniProt P53634),0.0258,-0.283
CTSV_O60911_323_NNHCGIATAASYPNV (UniProt O60911),0.147,-0.0722
CTSB_P07858_211_ICEPGYSPTYK (UniProt P07858),-0.112,-0.138
CUL4B_Q13620_292+297_CWQNHCR (UniProt Q13620),-0.0789,0.228
DBR1_Q9UK59_347_VPCNFSVTAACYDPSKPQTQMQLIHR (UniProt Q9UK59),-0.209,-0.211
CTSS_P25774_213_CQYDSK (UniProt P25774),0.00868,-0.148
CYLD_Q9NQC7_934_RIQGCAR (UniProt Q9NQC7),-0.0179,-0.0778
